From article PMC7043103
Results are given in words; binding and its absence hold for the method and conditions named. In cells and extracts the contact can be indirect. Some results given as binding are weak or reduced against the parent protein; the word gives no strength.

By UniProt entry, the sequences of proteins in these tests, tags left out. Residues count along the entry.
UniProt Q96PU5: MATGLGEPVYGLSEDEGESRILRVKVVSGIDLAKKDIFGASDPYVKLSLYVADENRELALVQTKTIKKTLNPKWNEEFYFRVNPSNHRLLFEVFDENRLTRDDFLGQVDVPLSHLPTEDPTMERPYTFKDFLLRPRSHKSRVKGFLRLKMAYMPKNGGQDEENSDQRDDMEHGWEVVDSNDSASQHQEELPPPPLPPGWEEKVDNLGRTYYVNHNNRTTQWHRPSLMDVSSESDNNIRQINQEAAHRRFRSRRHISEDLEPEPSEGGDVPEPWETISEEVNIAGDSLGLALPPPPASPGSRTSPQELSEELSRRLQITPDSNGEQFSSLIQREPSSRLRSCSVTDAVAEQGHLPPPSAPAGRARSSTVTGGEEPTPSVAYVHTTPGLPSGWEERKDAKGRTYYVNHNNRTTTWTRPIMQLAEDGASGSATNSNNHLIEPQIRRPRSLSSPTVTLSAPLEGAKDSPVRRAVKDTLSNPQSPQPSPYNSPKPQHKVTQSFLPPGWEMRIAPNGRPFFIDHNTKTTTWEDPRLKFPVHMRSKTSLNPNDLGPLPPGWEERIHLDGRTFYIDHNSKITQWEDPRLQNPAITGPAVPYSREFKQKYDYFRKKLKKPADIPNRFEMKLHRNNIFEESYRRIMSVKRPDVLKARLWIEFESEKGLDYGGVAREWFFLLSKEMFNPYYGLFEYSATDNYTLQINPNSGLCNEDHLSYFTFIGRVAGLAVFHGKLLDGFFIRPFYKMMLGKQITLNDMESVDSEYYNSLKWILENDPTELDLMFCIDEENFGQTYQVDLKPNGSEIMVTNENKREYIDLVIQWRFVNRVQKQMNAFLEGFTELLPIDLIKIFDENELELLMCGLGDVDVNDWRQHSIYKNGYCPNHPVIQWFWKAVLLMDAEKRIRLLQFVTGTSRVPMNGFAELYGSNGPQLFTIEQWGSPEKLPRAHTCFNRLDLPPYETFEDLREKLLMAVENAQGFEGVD
UniProt Q9BXM7, residues 78-581: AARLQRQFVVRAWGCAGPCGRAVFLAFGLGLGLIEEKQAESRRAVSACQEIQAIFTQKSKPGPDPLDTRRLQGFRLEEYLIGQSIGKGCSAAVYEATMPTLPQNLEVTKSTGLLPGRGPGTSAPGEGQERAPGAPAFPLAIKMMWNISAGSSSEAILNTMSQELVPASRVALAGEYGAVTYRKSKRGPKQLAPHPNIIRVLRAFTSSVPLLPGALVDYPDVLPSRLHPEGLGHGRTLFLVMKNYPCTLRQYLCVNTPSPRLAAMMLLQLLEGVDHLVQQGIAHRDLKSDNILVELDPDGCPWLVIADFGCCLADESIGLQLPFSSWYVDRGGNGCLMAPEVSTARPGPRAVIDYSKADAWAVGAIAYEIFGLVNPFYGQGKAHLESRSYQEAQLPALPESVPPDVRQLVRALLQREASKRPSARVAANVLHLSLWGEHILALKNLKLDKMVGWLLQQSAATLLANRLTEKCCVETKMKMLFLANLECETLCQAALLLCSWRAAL

Experiments:
[1] = molecular target: NEDD4L-HA (UniProt Q96PU5); assay: co-IP; PINK1-Flag and NEDD4L-HA transfected into SH-SY5Y, co-immunoprecipitation assay
[2] = molecular target: NEDD4L (neuronal precursor cell-expressed developmentally downregulated 4-like), endogenous (human (endogenous in SH-SY5Y)) (UniProt Q96PU5); assay: co-IP; SH-SY5Y lysates immunoprecipitated with an anti-NEDD4L antibody, western blotting with an anti-PINK1 antibody; endogenous proteins; also done in cells transfected with NEAT1 (the interaction was promoted)

binding [1] | binding [2] | Substance
binds |  | PINK1-Flag (from UniProt Q9BXM7 78-581)
 | binds | PTEN-induced putative kinase 1 (PINK1), endogenous (from UniProt Q9BXM7 78-581)
